Measured values taken from PubChem BioAssay AID1347120 (National Center for Advancing Translational Sciences (NCATS), 2019).
About 930 (0.24%) of roughly 390,000 compounds were called active. These results got no clear call from the source, so the numbers are uncertain. The call rests on the fitted dose curve; in most records, active means well fitted activation curve with a large enough effect; inconclusive means small, poorly fitted or top-dose-only effect; inactive means no such curve, though single readings can be large or run the other way.

Assay: qHTS for Suppressors of FUS Proteinopathy: Primary screen using FUS-linked yeast assay; further: nearly all actives have a fitted effect of over 55% in size
Conditions: S. cerevisiae FUS-expressing, growth rescue, OD600, 24 h
Excerpt: Several widespread neurodegenerative diseases, including Alzheimer disease, Huntington disease, Frontotemporal Lobar Degeneration (FTLD) and Amyotrophic Lateral Sclerosis (ALS), share a common pathological feature, namely accumulation of specific protein aggregates in diseased tissue. These diseases which is associated with protein misfolding (proteinopathies) have become increasingly problematic as the population ages and life expectancies are extended. Most proteinopathies are currently incurable, a situation confounded by the fact that the basis of neurodegeneration is generally poorly understood. There exists urgent and significant need to find therapeutics that can inhibit the toxicity associated with protein aggregation. […]
For this project, a yeast model of the FUS proteinopathies (a spectrum of neurodegenerative diseases that include ALS and a subtype of FTLD) was generated and employed. […] This model was validated to be suitable for quantitative HTS (qHTS) use for finding genetic or chemical factors that restore growth. […]
Four hundred fifty microliter of cultured yeast (in 20mL rich medium) provided by Dr. Shewmaker lab was incubated at 30C at 99% humidity for 3hr. […] Absorbance at 600nm was then read using the PerkinElmer ViewLux plate reader.
Potency means the concentration at half of the fitted maximal effect.

SMILES | Potency
O=C(OCCN1CCN(CCOCc2ccccc2)CC1)C(O)(c1ccccc1)c1ccccc1 | inconclusive: 28.2 µM
